{"source": "paper PMC12040169", "about": "(PLOS Biology, 2025)", "note": "This is one part of the list."}
{"tested_on": "T1, CTL2-GFP (C. trachomatis L2/434/Bu, GFP-expressing)", "T1 construct": "L2/434/Bu, GFP-expressing", "design": "species or system HeLa; Intracellular C. trachomatis growth in HeLa cells, bulk GFP fluorescence relative to DMSO", "conditions": "bulk GFP, single well; 28.5 h, 10 µM; inhibitor", "units": {"% of control remaining": "%"}}
{"smiles": "Cn1cc(-c2nccnc2OCCc2cccs2)cn1", "note": "[CBK107066]", "% of control remaining": 122.024}
{"smiles": "CC(C)(CC(=O)O)CC(=O)Nc1ccc(Cl)c(Cl)c1", "note": "[CBK086500]", "% of control remaining": 141.596}
{"smiles": "CC(=O)NC1CCN(CC2(c3ccc(F)cc3)CCCC2)CC1", "note": "[CBK283327]", "% of control remaining": 123.496}
{"smiles": "O=c1oc2c(CN3CCN(CCO)CC3)c(O)ccc2cc1-c1nc(-c2ccc(Br)cc2)cs1", "note": "[CBK264949]", "% of control remaining": 100}
{"smiles": "Cc1ccc(S(=O)(=O)n2c(SCc3ccccc3)nc3ccccc32)cc1", "note": "[CBK293933]", "% of control remaining": 90.6369}
{"smiles": "OCc1cc(N2CCOC3(CCCOC3)C2)ncc1F", "note": "(centres unmarked) [CBK304774]", "% of control remaining": 137.056}
{"smiles": "CCCn1ccnc1SCC(=O)Nc1ccc(CN2CCOCC2)cc1", "note": "[CBK306068]", "% of control remaining": 112.001}
{"smiles": "FC(F)c1cc(-c2ccccc2)n2ncnc2n1", "note": "[CBK025714]", "% of control remaining": 100}
{"smiles": "COc1ccc(S(=O)(=O)N(C)CC(=O)Nc2ccc(C(N)=O)cc2)cc1Cl", "note": "[CBK267891]", "% of control remaining": 113.705}
{"smiles": "CCN(CC)CCNC(=O)c1c(O)c2ccccc2n(Cc2ccccc2)c1=O", "note": "[CBK291199]", "% of control remaining": 76.4912}
{"smiles": "O=C(CN1C(=O)c2ccccc2C1=O)OCC(=O)N1c2ccccc2Sc2ccccc21", "note": "[CBK264701]", "% of control remaining": 117.379}
{"smiles": "COC(=O)c1ccccc1NC(=O)COc1ccc(Cl)c2cccnc12", "note": "[CBK266037]", "% of control remaining": 202.482}
{"smiles": "CN(C)CCNc1nc(-c2cccc3ncccc23)cnc1N", "note": "[CBK063693]", "% of control remaining": 239.065}
{"smiles": "Cc1ccc(N2C(=O)c3ccccc3C2Nc2ccccc2)nc1", "note": "(centres unmarked) [CBK113238]", "% of control remaining": 102.707}
{"smiles": "Cc1ccc(Nc2nc(N)nc(CN3CCN(Cc4ccc5c(c4)OCO5)CC3)n2)cc1", "note": "[CBK268985]", "% of control remaining": 133.527}
{"smiles": "CC[n+]1c(C(C)(C)C)csc1NCC1CC1", "note": "[CBK011154B]", "% of control remaining": 80.1402}
{"smiles": "O=C(NCCN1CCOCC1)C1CCN(C(=O)c2cccc(F)c2)CC1", "note": "[CBK304627]", "% of control remaining": 137.631}
{"smiles": "CC(=O)Nc1cccc(NC(=O)c2cnc3sc(C)cn3c2=O)c1", "note": "[CBK287715]", "% of control remaining": 96.7548}
{"smiles": "O=C(c1ccc2[nH]nnc2c1)N1CCc2ccccc2C1", "note": "[CBK200332]", "% of control remaining": 82.6141}
{"smiles": "CN(C(=O)N1CCC(C(=O)NC(c2ccccc2)c2ccco2)CC1)c1ccccc1", "note": "(centres unmarked) [CBK059877]", "% of control remaining": 88.2682}
{"smiles": "COc1cccc(C(=O)N2CCC(Cc3ccc(-c4cccc(C)c4)cc3)(C(N)=O)CC2)c1", "note": "[CBK285779]", "% of control remaining": 29.3746}
{"smiles": "Cn1c(=O)[nH]c(=O)c2c1nc(N1CCN(Cc3ccccc3)CC1)n2CCCc1ccccc1", "note": "[CBK269529]", "% of control remaining": 121}
{"smiles": "CCOC(=O)CCNC(=O)C1(c2ccc(OC)cc2)CC1", "note": "[CBK161490]", "% of control remaining": 115.112}
{"smiles": "O=C(Nc1ccc(S(=O)(=O)N2CCCCC2)cc1)c1nc(SCc2ccccc2)ncc1Cl", "note": "[CBK268901]", "% of control remaining": 100.728}
{"smiles": "Cc1noc(C2COCCN2C(=O)c2cc(Cl)cn2C)n1", "note": "(centres unmarked) [CBK305120]", "% of control remaining": 106.578}
{"smiles": "O=C1CCCC[C@@H]2[C@@H](N1)[C@H](c1ccccc1)CN2Cc1ccc2ccccc2n1", "note": "[CBK286281]", "% of control remaining": 105.528}
{"smiles": "O=C(O)Cn1nnc(-c2ccc(OCc3ccccc3)cc2)n1", "note": "[CBK269755]", "% of control remaining": 132.369}
{"smiles": "CCCCC12CN3CC(C)(CN(C1)C31C(=O)N(C)c3ccc(C)cc31)C2=O", "note": "(centres unmarked) [CBK267286]", "% of control remaining": 114.557}
{"smiles": "COc1ccc(CC(=O)Nc2ccc(Nc3ccccc3)cc2)cc1", "note": "[CBK263884]", "% of control remaining": 47.9322}
{"smiles": "Cc1ccnc(SCc2c(Cl)cccc2[N+](=O)[O-])n1", "note": "[CBK269632]", "% of control remaining": 126.033}
{"smiles": "O=C(CCC(=O)N1CCC2(CC1)CC(=O)c1ccccc1O2)NCC1CCCO1", "note": "(centres unmarked) [CBK156525]", "% of control remaining": 118.029}
{"smiles": "Cc1oc(C(=O)O)cc1CSC(C)C(=O)O", "note": "(centres unmarked) [CBK263556]", "% of control remaining": 121.77}
{"smiles": "O=C(CN1CCC(C(=O)c2ccc(F)cc2)CC1)c1ccsc1", "note": "[CBK149137]", "% of control remaining": 87.239}
{"smiles": "CC(C)(C)OC(=O)NCc1ccc(-c2cc(Nc3cccc(Cl)c3)ncn2)cc1", "note": "[CBK037842]", "% of control remaining": 128.688}
{"smiles": "O=CN1CCc2c([nH]c3ccccc23)C12CCCN(CCOc1ccccc1)C2", "note": "(centres unmarked) [CBK039412]", "% of control remaining": 81.3225}
{"smiles": "COc1cc(NC(=O)CS(=O)(=O)c2ccccc2)c(OC)cc1Cl", "note": "[CBK269471]", "% of control remaining": 123.715}
{"smiles": "Cc1cc(C(=O)CSc2nncs2)c(C)n1C(C)c1ccccc1", "note": "(centres unmarked) [CBK297934]", "% of control remaining": 112.984}
{"smiles": "Cc1cccc(OCC2CCCN(C(=O)C3(Cn4cccn4)CC3)C2)c1", "note": "(centres unmarked) [CBK306578]", "% of control remaining": 108.481}
{"smiles": "O=C(Nc1ccc(Cl)cc1)NC1(C(=O)NCc2ccncc2)CCCCC1", "note": "[CBK174259]", "% of control remaining": 121.373}
{"smiles": "O=S1(=O)CCCN1c1ccc2[nH]ncc2c1", "note": "[CBK010263]", "% of control remaining": 132.653}
{"smiles": "CCOc1cccc(CNc2ccc(O)cc2)c1OCc1ccccc1Cl", "note": "[CBK074473]", "% of control remaining": 129.311}
{"smiles": "Cc1nnc(Sc2nc(CN3CCOCC3)nc3scc(-c4cccs4)c23)n1C", "note": "[CBK297092]", "% of control remaining": 92.0883}
{"smiles": "O=C(NC(c1ccc(F)cc1)c1cccs1)c1ccccn1", "note": "(centres unmarked) [CBK295636]", "% of control remaining": 120.408}
{"smiles": "NC1CCN(C(=O)c2cn(C3CC3)c3cc(Cl)c(F)cc3c2=O)CC1", "note": "[CBK168626]", "% of control remaining": 156.236}
{"smiles": "O=C(CN1CCOCC1)Nc1ccc(NC(=O)CN2CCOCC2)cc1", "note": "[CBK265045]", "% of control remaining": 110.028}
{"smiles": "Nc1c(Cl)cc(NC(=O)CCCC(=O)O)cc1Cl", "note": "[CBK263957]", "% of control remaining": 100}
{"smiles": "O=C(c1cc2c([nH]1)CCCC2)N1CCC(CCN2CCOCC2)CC1", "note": "[CBK281869]", "% of control remaining": 146.929}
{"smiles": "Cc1ccc(C(=O)C(OC(=O)c2ccc(-c3nnc(-c4ccccc4)o3)cc2)c2ccccc2)cc1", "note": "(centres unmarked) [CBK265177]", "% of control remaining": 105.04}
{"smiles": "c1coc(CCC2NCCn3cccc32)c1", "note": "(centres unmarked) [CBK023964F]", "% of control remaining": 139.349}
{"smiles": "CCOC(=O)c1csc(C2CCCN2C(=O)c2cc(SC)ccc2Cl)n1", "note": "(centres unmarked) [CBK306491]", "% of control remaining": 123.683}
{"smiles": "CN(C)CCOc1ncccc1OCCO", "note": "[CBK000655F]", "% of control remaining": 94.617}
{"smiles": "CCS(=O)(=O)N1CC2CCCC(O)(c3cccc(F)c3)C2C1", "note": "(centres unmarked) [CBK283108]", "% of control remaining": 115.199}
{"smiles": "O=S(=O)(Nc1nc(-c2c(F)cccc2Cl)cs1)c1cc(Cl)c(Cl)s1", "note": "[CBK200025]", "% of control remaining": 121.639}
{"smiles": "COc1ccc(C2=CC(c3ccc(Cl)cc3)N3N=CNC3=N2)cc1OC", "note": "(centres unmarked) [CBK287966]", "% of control remaining": 137.973}
{"smiles": "Cc1nn2cc(-c3n[nH]cc3[N+](=O)[O-])cnc2c1C(=O)O", "note": "[CBK268883]", "% of control remaining": 133.883}
{"smiles": "CC1CCN(Cc2ccc(-c3nnn(CC(=O)NCc4ccc(O)cc4)n3)cc2)CC1", "note": "[CBK144156C]", "% of control remaining": 121.761}
{"smiles": "O=C1CCCN1CC(=O)N1CCCC1c1nc2ccccc2[nH]1", "note": "(centres unmarked) [CBK282315]", "% of control remaining": 117.908}
{"smiles": "CC1=NNC(=O)C1C(c1ccc(Cl)cc1Cl)C1C(=O)NN=C1C", "note": "(centres unmarked) [CBK067756]", "% of control remaining": 110.847}
{"smiles": "COC(=O)C(CC(C)C)Nc1nc(OC)cc(OC)n1", "note": "(centres unmarked) [CBK058765]", "% of control remaining": 120.199}
{"smiles": "CNc1ccc(C(O)(C(F)(F)F)C(F)(F)F)cc1C(O)(C(F)(F)F)C(F)(F)F", "note": "[CBK268070]", "% of control remaining": 125.225}
{"smiles": "O=[N+]([O-])c1ccc(N2CCN(S(=O)(=O)c3ccccc3)CC2)cc1Sc1cccc2cccnc12", "note": "[CBK263821]", "% of control remaining": 104.667}
{"smiles": "c1nc(OCCN2CCOCC2)cc(N2CCCNCC2)n1", "note": "[CBK085466]", "% of control remaining": 132.309}
{"smiles": "O=C(O)CCc1nc(-c2ccncc2)no1", "note": "[CBK288558]", "% of control remaining": 128.508}
{"smiles": "COc1ccc(C(=O)NC(=S)Nc2ccccc2N2CCN(C)CC2)cc1[N+](=O)[O-]", "note": "[CBK268292C]", "% of control remaining": 105.423}
{"smiles": "Cc1cc(S(=O)(=O)Nc2n[nH]cc2C#N)c(C)cc1Cl", "note": "[CBK044943]", "% of control remaining": 96.7824}
{"smiles": "OCCCNc1nccnc1-c1ccccc1Cl", "note": "[CBK038092]", "% of control remaining": 217.457}
{"smiles": "CC(=O)c1c(C)nn(CCC(=O)Nc2ccc(Cl)c(Cl)c2)c1C", "note": "[CBK269829]", "% of control remaining": 104.961}
{"smiles": "CC(C)N(CCOc1nccnc1-c1ccc(OC(F)(F)F)cc1)C(C)C", "note": "[CBK106848]", "% of control remaining": 120.201}
{"smiles": "Cc1c(-c2noc(-c3ccc4c(c3)OCO4)n2)nnn1Cc1ccccc1", "note": "[CBK288609]", "% of control remaining": 74.5332}
{"smiles": "CC(Oc1ccc(/C=C/[N+](=O)[O-])cc1)C(=O)O", "note": "(centres unmarked) [CBK264042]", "% of control remaining": 125.91}
{"smiles": "CC(=O)OC(C(=O)O)C(OC(C)=O)C(=O)O", "note": "(centres unmarked) [CBK261063]", "% of control remaining": 94.3018}
{"smiles": "NC12CC(=O)CC(CC(c3ccccc3)C1)C2", "note": "(centres unmarked) [CBK010323C]", "% of control remaining": 138.546}
{"smiles": "COC(=O)c1ccccc1NC(=O)CSc1nnc(-c2ccncc2)[nH]1", "note": "[CBK266324]", "% of control remaining": 108.191}
{"smiles": "OCCN1CC2(CCN(CCN3CCOCC3)CC2)c2ccccc21", "note": "[CBK126766]", "% of control remaining": 70.6967}
{"smiles": "Cc1nn(C)c(C)c1C(C)NC(=O)C1CC2C=CC1C21CC1", "note": "(centres unmarked) [CBK283076]", "% of control remaining": 142.154}
{"smiles": "Cc1cc(COc2nccnc2N2CCN(CCCn3c(=O)[nH]c4ccccc43)CC2)no1", "note": "[CBK084199]", "% of control remaining": 151.35}
{"smiles": "O=C(O)c1[nH]n(-c2ccc(Cl)cc2)c(=O)c1CCO", "note": "[CBK287079]", "% of control remaining": 126.885}
{"smiles": "Cc1nc2cccnc2n1C1CCN(C(=O)NC2CCCCC2)CC1", "note": "[CBK283637]", "% of control remaining": 106.573}
{"smiles": "Cc1noc(C)c1S(=O)(=O)Nc1cccc(C(=O)O)c1", "note": "[CBK038902]", "% of control remaining": 187.498}
{"smiles": "Cc1c(CN(C)C(=O)c2ccc(COc3ccc(Cl)cc3)cc2)cnn1C", "note": "[CBK265756]", "% of control remaining": 53.9885}
